These results are taken from the supplement of paper PMC12067093, “Discovery and optimisation of a covalent ligand for TRIM25 and its application to targeted protein ubiquitination” (Chemical Science, 2025).

Sequences of proteins named here, by UniProt entry; tags and fusion partners are left off. A change or cut given only in a name is not applied to a line headed by its entry.
UniProt P49756, whole entry, looked up: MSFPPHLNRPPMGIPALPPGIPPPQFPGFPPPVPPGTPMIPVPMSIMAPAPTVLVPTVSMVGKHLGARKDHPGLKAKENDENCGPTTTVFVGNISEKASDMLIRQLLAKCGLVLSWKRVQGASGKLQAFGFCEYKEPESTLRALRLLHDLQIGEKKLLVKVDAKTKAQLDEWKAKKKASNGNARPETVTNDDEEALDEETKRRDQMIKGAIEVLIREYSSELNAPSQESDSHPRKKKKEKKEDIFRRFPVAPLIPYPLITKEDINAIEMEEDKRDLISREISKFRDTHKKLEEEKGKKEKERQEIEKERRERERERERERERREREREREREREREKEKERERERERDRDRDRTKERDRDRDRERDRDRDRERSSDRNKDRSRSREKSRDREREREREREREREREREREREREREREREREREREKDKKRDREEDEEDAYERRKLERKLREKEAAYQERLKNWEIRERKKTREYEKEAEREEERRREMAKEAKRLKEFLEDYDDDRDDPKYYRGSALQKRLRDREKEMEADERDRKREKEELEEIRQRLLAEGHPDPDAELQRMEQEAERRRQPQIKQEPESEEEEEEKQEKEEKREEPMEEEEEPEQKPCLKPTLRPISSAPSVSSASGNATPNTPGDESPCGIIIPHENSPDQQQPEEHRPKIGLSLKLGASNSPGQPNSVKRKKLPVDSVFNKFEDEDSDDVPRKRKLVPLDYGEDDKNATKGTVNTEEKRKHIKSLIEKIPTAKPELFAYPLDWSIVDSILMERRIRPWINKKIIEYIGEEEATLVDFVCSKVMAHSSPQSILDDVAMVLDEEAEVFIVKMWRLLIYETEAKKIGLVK
UniProt P52306: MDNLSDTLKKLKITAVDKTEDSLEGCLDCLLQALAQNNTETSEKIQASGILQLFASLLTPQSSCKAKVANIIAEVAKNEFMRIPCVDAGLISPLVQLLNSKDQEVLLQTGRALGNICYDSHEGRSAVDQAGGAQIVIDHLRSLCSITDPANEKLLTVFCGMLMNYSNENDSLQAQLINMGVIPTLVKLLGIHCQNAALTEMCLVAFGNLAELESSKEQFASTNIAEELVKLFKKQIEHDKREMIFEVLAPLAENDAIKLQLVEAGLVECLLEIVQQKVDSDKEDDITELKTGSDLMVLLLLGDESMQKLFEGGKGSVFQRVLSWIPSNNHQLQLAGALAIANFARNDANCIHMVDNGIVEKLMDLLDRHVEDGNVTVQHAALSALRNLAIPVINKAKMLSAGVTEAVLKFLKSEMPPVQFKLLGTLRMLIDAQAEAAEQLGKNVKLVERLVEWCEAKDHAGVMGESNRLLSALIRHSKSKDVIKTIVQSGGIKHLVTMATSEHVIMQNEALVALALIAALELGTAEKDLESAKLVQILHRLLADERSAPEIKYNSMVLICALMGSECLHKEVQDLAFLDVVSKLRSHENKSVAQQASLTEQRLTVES
UniProt Q96PM5: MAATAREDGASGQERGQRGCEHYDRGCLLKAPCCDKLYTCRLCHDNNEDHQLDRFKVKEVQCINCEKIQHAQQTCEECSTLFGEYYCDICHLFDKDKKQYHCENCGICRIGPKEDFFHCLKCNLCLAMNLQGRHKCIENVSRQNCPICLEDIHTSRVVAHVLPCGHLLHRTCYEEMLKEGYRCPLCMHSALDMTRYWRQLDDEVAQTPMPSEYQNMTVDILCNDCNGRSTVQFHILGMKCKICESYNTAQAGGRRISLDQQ
UniProt Q9NW64: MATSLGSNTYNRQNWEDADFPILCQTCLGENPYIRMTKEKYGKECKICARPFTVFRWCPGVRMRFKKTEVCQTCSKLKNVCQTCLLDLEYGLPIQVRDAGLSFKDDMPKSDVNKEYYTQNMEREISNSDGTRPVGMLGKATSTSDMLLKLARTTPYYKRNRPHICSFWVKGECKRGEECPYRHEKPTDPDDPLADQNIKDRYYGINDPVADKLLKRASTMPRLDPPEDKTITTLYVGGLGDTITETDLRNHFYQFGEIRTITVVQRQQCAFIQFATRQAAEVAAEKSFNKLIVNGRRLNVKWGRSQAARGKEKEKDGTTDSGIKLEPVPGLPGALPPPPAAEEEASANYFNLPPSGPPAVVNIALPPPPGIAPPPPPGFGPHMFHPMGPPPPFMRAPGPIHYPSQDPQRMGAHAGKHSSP
UniProt Q86X10: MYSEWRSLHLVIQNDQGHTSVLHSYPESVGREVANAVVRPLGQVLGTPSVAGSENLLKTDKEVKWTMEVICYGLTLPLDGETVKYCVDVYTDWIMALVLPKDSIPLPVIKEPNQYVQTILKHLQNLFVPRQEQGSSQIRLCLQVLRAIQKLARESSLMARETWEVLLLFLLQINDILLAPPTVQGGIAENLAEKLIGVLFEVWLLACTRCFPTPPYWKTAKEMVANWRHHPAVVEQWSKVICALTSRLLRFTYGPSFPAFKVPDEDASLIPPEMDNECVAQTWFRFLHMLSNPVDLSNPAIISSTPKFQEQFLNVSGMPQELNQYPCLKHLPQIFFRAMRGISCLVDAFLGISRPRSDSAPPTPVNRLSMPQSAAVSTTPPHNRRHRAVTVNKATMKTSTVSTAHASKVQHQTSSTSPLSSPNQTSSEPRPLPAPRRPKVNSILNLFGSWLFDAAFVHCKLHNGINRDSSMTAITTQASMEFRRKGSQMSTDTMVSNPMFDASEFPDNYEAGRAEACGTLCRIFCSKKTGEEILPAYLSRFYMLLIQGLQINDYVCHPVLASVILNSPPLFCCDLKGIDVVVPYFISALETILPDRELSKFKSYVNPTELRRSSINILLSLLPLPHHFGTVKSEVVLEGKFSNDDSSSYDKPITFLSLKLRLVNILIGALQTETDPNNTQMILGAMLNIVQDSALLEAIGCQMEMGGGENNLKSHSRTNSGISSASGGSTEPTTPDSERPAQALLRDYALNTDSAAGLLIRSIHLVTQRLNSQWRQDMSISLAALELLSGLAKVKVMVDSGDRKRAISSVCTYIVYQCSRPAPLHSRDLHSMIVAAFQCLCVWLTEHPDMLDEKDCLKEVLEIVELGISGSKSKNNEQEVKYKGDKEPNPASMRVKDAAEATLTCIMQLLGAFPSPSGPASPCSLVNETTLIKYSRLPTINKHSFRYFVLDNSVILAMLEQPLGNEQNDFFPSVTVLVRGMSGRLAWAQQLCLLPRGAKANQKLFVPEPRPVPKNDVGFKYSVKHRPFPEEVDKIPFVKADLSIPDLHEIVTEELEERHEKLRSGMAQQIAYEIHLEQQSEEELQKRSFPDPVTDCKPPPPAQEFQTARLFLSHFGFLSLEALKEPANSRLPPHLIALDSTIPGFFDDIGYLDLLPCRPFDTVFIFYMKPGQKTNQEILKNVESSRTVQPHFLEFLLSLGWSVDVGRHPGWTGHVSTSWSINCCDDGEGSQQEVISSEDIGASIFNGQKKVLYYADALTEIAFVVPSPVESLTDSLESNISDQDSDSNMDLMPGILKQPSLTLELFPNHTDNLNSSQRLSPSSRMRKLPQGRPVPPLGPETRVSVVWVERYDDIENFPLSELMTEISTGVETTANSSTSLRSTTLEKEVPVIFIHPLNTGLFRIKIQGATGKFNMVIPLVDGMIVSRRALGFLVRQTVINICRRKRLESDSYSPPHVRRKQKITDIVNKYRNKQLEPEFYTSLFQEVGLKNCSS
UniProt Q9P258, whole entry, looked up: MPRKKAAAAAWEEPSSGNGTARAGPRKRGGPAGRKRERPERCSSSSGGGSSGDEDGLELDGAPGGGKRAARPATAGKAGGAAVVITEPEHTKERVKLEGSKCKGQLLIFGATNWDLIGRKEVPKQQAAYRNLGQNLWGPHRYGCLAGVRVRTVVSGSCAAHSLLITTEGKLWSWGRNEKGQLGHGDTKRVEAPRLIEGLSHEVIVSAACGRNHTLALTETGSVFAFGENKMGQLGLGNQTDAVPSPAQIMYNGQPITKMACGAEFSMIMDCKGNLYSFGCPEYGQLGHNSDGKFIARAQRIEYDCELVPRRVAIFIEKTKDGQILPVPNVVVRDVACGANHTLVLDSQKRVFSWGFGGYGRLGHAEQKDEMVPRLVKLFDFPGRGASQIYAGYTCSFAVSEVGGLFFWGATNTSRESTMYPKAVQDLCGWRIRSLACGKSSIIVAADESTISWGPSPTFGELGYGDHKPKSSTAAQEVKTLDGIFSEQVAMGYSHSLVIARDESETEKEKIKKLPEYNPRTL
UniProt P18754: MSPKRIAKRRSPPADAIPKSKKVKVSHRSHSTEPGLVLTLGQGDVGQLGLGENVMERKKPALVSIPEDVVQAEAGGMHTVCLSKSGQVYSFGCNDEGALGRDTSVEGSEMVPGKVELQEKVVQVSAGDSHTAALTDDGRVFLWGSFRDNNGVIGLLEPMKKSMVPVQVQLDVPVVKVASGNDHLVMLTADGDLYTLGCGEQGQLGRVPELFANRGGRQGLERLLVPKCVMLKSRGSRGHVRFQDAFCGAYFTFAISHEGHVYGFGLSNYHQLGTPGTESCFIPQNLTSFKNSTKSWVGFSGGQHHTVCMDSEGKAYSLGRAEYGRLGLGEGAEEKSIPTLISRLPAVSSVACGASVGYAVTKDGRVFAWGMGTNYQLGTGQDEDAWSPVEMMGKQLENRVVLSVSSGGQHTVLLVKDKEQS
UniProt Q8IY67: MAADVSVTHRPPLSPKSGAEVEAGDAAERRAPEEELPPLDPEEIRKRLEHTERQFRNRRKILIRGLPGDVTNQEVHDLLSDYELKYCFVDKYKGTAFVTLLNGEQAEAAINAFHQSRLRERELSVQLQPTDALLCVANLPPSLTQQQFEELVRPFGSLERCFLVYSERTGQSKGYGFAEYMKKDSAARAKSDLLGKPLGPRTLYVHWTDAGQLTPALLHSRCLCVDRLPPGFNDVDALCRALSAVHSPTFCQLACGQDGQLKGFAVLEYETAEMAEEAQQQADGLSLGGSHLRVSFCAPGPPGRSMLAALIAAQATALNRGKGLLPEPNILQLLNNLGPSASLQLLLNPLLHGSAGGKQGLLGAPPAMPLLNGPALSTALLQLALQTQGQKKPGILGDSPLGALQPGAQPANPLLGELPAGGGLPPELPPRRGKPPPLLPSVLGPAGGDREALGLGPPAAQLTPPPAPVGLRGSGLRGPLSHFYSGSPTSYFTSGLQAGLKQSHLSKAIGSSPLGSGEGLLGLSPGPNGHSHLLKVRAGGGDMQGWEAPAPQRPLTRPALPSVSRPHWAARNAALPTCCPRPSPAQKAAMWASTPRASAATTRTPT
UniProt Q16576, whole entry, looked up: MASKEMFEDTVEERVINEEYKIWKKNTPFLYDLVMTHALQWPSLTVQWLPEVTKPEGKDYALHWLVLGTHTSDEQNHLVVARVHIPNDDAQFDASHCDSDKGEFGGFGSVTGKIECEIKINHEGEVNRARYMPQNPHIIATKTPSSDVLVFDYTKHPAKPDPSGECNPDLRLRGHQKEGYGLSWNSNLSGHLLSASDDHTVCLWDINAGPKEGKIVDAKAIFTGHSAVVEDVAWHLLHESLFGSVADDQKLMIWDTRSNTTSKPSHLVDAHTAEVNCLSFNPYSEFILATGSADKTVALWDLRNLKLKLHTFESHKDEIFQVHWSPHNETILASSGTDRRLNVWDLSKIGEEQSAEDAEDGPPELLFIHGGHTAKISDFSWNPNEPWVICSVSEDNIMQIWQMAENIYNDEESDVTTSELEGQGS
UniProt P06400: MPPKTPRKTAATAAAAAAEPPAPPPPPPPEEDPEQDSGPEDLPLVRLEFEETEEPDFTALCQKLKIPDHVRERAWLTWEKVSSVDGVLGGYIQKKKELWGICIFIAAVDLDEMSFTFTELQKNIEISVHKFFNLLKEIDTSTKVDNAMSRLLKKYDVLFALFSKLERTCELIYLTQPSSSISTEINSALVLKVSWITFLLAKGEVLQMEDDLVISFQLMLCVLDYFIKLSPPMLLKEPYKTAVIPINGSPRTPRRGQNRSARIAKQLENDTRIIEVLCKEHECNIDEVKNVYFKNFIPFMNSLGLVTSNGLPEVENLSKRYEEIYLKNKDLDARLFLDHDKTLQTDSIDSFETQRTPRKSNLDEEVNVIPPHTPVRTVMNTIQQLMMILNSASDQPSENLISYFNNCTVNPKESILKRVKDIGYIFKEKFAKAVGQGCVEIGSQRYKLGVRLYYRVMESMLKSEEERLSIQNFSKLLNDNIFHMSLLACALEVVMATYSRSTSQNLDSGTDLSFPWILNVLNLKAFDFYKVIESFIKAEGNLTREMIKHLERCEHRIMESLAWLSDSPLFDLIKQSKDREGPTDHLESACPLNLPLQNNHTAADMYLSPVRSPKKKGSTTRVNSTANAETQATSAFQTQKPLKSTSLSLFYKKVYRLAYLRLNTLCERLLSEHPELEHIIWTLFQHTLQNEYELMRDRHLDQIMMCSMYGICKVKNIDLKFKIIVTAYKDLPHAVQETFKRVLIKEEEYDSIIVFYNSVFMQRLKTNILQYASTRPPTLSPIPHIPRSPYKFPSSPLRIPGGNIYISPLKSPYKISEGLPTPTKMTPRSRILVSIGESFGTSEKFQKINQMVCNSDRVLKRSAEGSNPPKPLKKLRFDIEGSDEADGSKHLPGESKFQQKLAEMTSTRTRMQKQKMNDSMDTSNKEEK

Compound in this assay: CC1Cc2ccccc2N1C(=O)C1CCCN(C1)C(=O)CCl (mixture of isomers) [TRIM25 ligand 11 (diastereomer mixture)]
Description: probe-labelled cysteine peptide fold change vs DMSO (competition) (log2 fold change); higher = less target engagement (more negative = stronger competition). Particulars: THP-1, incubation time: 4 h.

Some of the results follow.
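Also: competitive chemoproteomic profiling in live THP-1 cells with an iodoacetamide desthiobiotin (IA-DTB) probe, comparing probe-labelled peptide intensities in compound-treated cells against DMSO-treated controls.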

As for “RBM25_P49756_132_LQAFGFCEYKEPESTLR (UniProt P49756)”, the “probe-labelled cysteine peptide fold change” value is -0.119 (10 µM) and 0.0678 (50 µM).

Regarding “RAP1GDS1_P52306_350_NDANCIHMVDNGIVEK (UniProt P52306)”, the “probe-labelled cysteine peptide fold change” value (10 µM) was -0.0202 and the “probe-labelled cysteine peptide fold change” value (50 µM) was -0.0323.

On to “RARS2_Q5T160_479_LHSLEETFGCGYLNDFNTACLQEPQSVSILQHLLR (UniProt Q5T160)”, for which the “probe-labelled cysteine peptide fold change” value is 0.0498 (10 µM) and 0.199 (50 µM).

For “RBM25_P49756_132_LQAFGFCEYK (UniProt P49756)”, the “probe-labelled cysteine peptide fold change” value was determined as 0.394 (10 µM) and 0.449 (50 µM).

As to “RBM4B_Q9BQ04_89_LHVGNISPTCTNQELR (UniProt Q9BQ04)”, the “probe-labelled cysteine peptide fold change” value (10 µM) amounted to 0.0586 and the “probe-labelled cysteine peptide fold change” value (50 µM) turned out to be 0.0319.

Turning to “RCHY1_Q96PM5_65_EVQCINCEK (UniProt Q96PM5)”, the “probe-labelled cysteine peptide fold change” value by setting is: (10 µM) 0.0321; (50 µM) -0.0427.

“RBM22_Q9NW64_71_KTEVCQTCSK (UniProt Q9NW64)”: the “probe-labelled cysteine peptide fold change” value is -0.0297 (10 µM) and 0.054 (50 µM).

Turning to “RALGAPB_Q86X10_278_VPDEDASLIPPEMDNECVAQTWFR (UniProt Q86X10)”, the “probe-labelled cysteine peptide fold change” value by setting is: (10 µM) -0.291; (50 µM) -0.533.

As to “RBM6_P78332_957+960_LACLLCR (UniProt P78332)”, the “probe-labelled cysteine peptide fold change” value (10 µM) was -0.247 and the “probe-labelled cysteine peptide fold change” value (50 µM) is -0.133.

On to “RCC2_Q9P258_305_AQRIEYDCELVPR (UniProt Q9P258)”, for which the “probe-labelled cysteine peptide fold change” value (10 µM) was -0.313 and the “probe-labelled cysteine peptide fold change” value (50 µM) was -0.0516.

As for “RASAL2_Q9UJF2-2_95_KYCILTDSQLVLLNK (UniProt Q9UJF2)”, the “probe-labelled cysteine peptide fold change” value was -0.312 (10 µM) and 0.0501 (50 µM).

As for “RBM42_Q9BTD8_385_IFCGDLGNEVNDDILAR (UniProt Q9BTD8)”, the “probe-labelled cysteine peptide fold change” value reads like this: (10 µM) 0.0949; (50 µM) 0.0534.

On to “RBBP6_Q7Z6E9_44_AADCDLQITNAQTK (UniProt Q7Z6E9)”, for which the “probe-labelled cysteine peptide fold change” value was -0.0128 (10 µM) and -0.173 (50 µM).

As to “RASAL3_Q86YV0_546_CPASELPEHQAR (UniProt Q86YV0)”, the “probe-labelled cysteine peptide fold change” value reads like this: (10 µM) -0.0894; (50 µM) -0.27.

Consider “RBPJ_Q06330_313_IIQFQATPCPK (UniProt Q06330)”, for which the “probe-labelled cysteine peptide fold change” value stood at 0.0851 (10 µM) and 0.0536 (50 µM).

For “RBM27_Q9P2N5_279_CRDYDER (UniProt Q9P2N5)”, the “probe-labelled cysteine peptide fold change” value by setting is: (10 µM) -0.0287; (50 µM) -0.0206.

“RASSF4_Q9H2L5_33_TYNCYHEGK (UniProt Q9H2L5)”: the “probe-labelled cysteine peptide fold change” value (10 µM) is -0.11 and the “probe-labelled cysteine peptide fold change” value (50 µM) is 0.0698.

Regarding “RALY_Q9UKM9_51_VAGCSVHK (UniProt Q9UKM9)”, the “probe-labelled cysteine peptide fold change” value by setting is: (10 µM) 0.114; (50 µM) 0.0617.

Regarding “RBM25_P49756_83_AKENDENCGPTTTVFVGNISEK (UniProt P49756)”, the “probe-labelled cysteine peptide fold change” value is -0.237 (10 µM) and -0.334 (50 µM).

On to “RB1CC1_Q8TDY2_282_ESCQSTVHQQDETTIDTK (UniProt Q8TDY2)”, for which the “probe-labelled cysteine peptide fold change” value is, setting by setting: (10 µM) -0.0787; (50 µM) -0.311.

Consider “RANBP3_Q9H6Z4_249_NESSNASEEEACEK (UniProt Q9H6Z4)”, for which the “probe-labelled cysteine peptide fold change” value runs as follows: (10 µM) 0.387; (50 µM) -0.572.

As for “RARS2_Q5T160_576_LLGITPVCR (UniProt Q5T160)”, the “probe-labelled cysteine peptide fold change” value was -0.0243 (10 µM) and -0.117 (50 µM).

On to “RBM22_Q9NW64_269_QQCAFIQFATR (UniProt Q9NW64)”, for which the “probe-labelled cysteine peptide fold change” value reads like this: (10 µM) 0.178; (50 µM) 0.214.

With “RCC2_Q9P258_158_TVVSGSCAAHSLLITTEGK (UniProt Q9P258)”, the “probe-labelled cysteine peptide fold change” value runs as follows: (10 µM) 0.088; (50 µM) 0.107.

In the case of “RANBP2_P49792_3221_ITITECGQI (UniProt P49792)”, the “probe-labelled cysteine peptide fold change” value runs as follows: (10 µM) -0.127; (50 µM) 0.249.

As to “RCC1_P18754_81_KKPALVSIPEDVVQAEAGGMHTVCLSK (UniProt P18754)”, the “probe-labelled cysteine peptide fold change” value (10 µM) was -0.0603 and the “probe-labelled cysteine peptide fold change” value (50 µM) worked out at 0.0589.

Regarding “RANGAP1_P46060_169_ILAAALTECHRK (UniProt P46060)”, the “probe-labelled cysteine peptide fold change” value was -0.233 (10 µM) and -0.242 (50 µM).

As for “RASSF2_P50749_90_IRPPPSSSSWHSGCNLGAQGTTLKPLTVPK (UniProt P50749)”, the “probe-labelled cysteine peptide fold change” value (10 µM) came out at 0.0411 and the “probe-labelled cysteine peptide fold change” value (50 µM) is -0.437.

“RAP1GDS1_P52306_560+567_YNSMVLICALMGSECLHK (UniProt P52306)”: the “probe-labelled cysteine peptide fold change” value by setting is: (10 µM) -0.119; (50 µM) -0.182.

Take “RAD54L2_Q9Y4B4_1143_MAASGSQGPSCESTSNGR (UniProt Q9Y4B4)”: the “probe-labelled cysteine peptide fold change” value is, setting by setting: (10 µM) 0.113; (50 µM) -0.0522.

For the target “RCHY1_Q96PM5_136_CIENVSR (UniProt Q96PM5)”, the “probe-labelled cysteine peptide fold change” value by setting is: (10 µM) -0.00217; (50 µM) -0.135.

In the case of “RAVER1_Q8IY67_297_VSFCAPGPPGR (UniProt Q8IY67)”, the “probe-labelled cysteine peptide fold change” value (10 µM) was 0.0248 and the “probe-labelled cysteine peptide fold change” value (50 µM) was 0.0311.

For the target “RAN_P62826_112+120_VCENIPIVLCGNK (UniProt P62826)”, the “probe-labelled cysteine peptide fold change” value by setting is: (10 µM) -0.0208; (50 µM) -0.109.

Take “RASA3_Q14644_328_SADVEPVSASAAHILGEVCR (UniProt Q14644)”: the “probe-labelled cysteine peptide fold change” value by setting is: (10 µM) 0.125; (50 µM) -0.0382.

Take “RANBP1_P43487_132_AWVWNTHADFADECPKPELLAIR (UniProt P43487)”: the “probe-labelled cysteine peptide fold change” value runs as follows: (10 µM) -0.121; (50 µM) -0.198.

With “RBBP7_Q16576_166_HPAKPDPSGECNPDLR (UniProt Q16576)”, the “probe-labelled cysteine peptide fold change” value was -0.0467 (10 µM) and -0.136 (50 µM).

On to “RAI1_Q7Z5J4_899_APLICTK (UniProt Q7Z5J4)”, for which the “probe-labelled cysteine peptide fold change” value (10 µM) was -0.024 and the “probe-labelled cysteine peptide fold change” value (50 µM) was -0.376.

As for “RB1_P06400_283_EHECNIDEVK (UniProt P06400)”, the “probe-labelled cysteine peptide fold change” value reads like this: (10 µM) -0.00825; (50 µM) 0.0246.

Turning to “RANBP6_O60518_188_LLDQCIQDQEHPAIR (UniProt O60518)”, the “probe-labelled cysteine peptide fold change” value runs as follows: (10 µM) -0.191; (50 µM) -0.139.

As for “RASA1_P20936_828_QSCELSPSK (UniProt P20936)”, the “probe-labelled cysteine peptide fold change” value runs as follows: (10 µM) 0.153; (50 µM) -0.112.

In the case of “RAP1A_P62834_139+141_QWCNCAFLESSAK (UniProt P62834)”, the “probe-labelled cysteine peptide fold change” value was -0.0878 (10 µM) and 0.0826 (50 µM).

On to “RB1_P06400_438_AVGQGCVEIGSQR (UniProt P06400)”, for which the “probe-labelled cysteine peptide fold change” value (10 µM) is -0.0475 and the “probe-labelled cysteine peptide fold change” value (50 µM) turned out to be 0.117.

In the case of “RBM12_Q9NTZ6_545_VCAHITNIPFSITK (UniProt Q9NTZ6)”, the “probe-labelled cysteine peptide fold change” value was -0.0344 (10 µM) and -0.113 (50 µM).
